Experimental data: patent US20100143270A1, “THERAPEUTIC COTININE COMPOSITIONS” (University of Louisville Research Foubdation, priority 2007, published 2010)
“Also recorded” adds a separate entry of the source. At least one compound was matched to its structure with a doubt left.

How the values were obtained:
[1] = test system: P. gingivalis-stimulated human monocytes; test: TNF release by P. gingivalis-stimulated human monocytes (ELISA); type: cell-based; details: LY294002 25 μM 30 min, then cotinine 2 h, P. gingivalis stimulation
LPS-stimulated monocytes = test: IL-10 release by LPS-stimulated human monocytes (ELISA); type: cell-based; details: LY294002 25 μM 30 min, nicotine or cotinine 100 ng ml^−1 2 h, LPS 24 hr

SMILES: O=c1cc(N2CCOCC2)oc2c(-c3ccccc3)cccc12 [LY294002]
- Effect of PI3K inhibitor on cotinine suppression of TNF [1]: abrogates the ability of cotinine to suppress the inflammatory response; also recorded: abrogates the anti-inflammatory effects of cotinine
- Effect of PI3K inhibitor on IL-10 release enhanced by cotinine or nicotine (LPS-stimulated monocytes): abrogates the anti-inflammatory effects of cotinine and nicotine
